Where two headings read alike, the source gives them in different places. These are yes or no findings as the source states them, for the method shown. In cells and extracts the contact can be indirect. Some results given as binding are weak or reduced against the parent protein; the word gives no strength. Where a sequence is shown, tags or fusion partners need not be part of it.
T1: human GMNC (HA-tagged) (human) (UniProt A6NCL1)
T1 sequence: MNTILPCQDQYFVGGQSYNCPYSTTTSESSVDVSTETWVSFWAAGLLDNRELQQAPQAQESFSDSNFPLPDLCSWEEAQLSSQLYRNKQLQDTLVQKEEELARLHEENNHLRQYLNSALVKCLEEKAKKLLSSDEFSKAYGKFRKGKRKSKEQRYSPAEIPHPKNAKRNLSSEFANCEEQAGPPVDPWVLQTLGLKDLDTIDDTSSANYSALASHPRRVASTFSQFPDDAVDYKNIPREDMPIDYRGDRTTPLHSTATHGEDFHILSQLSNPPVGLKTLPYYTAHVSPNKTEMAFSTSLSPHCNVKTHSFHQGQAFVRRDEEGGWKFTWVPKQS

By UniProt entry, the sequences of proteins in these tests, tags left out.
UniProt Q16254, whole entry: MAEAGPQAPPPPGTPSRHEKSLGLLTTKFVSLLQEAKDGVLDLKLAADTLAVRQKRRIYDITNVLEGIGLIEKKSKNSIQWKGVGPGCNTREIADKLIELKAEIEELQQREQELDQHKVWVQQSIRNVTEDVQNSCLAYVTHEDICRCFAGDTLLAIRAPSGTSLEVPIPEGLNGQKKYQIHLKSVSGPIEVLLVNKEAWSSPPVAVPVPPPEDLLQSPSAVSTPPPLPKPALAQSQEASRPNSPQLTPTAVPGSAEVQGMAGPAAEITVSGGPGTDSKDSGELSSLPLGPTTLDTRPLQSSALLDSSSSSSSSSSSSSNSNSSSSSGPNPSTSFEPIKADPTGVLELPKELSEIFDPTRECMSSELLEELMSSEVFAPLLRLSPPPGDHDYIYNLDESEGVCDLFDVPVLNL
UniProt Q8R0K9, whole entry: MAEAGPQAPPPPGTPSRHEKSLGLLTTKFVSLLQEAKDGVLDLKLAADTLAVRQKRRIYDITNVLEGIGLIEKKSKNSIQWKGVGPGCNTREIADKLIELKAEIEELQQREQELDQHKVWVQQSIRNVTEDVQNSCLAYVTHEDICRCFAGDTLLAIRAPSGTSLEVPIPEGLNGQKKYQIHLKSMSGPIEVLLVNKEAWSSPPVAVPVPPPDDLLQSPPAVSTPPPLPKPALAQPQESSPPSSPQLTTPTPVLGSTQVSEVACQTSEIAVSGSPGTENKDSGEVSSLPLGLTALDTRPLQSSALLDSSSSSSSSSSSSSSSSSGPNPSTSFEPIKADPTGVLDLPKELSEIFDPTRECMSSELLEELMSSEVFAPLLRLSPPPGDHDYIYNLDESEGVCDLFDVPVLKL
UniProt Q14186, whole entry: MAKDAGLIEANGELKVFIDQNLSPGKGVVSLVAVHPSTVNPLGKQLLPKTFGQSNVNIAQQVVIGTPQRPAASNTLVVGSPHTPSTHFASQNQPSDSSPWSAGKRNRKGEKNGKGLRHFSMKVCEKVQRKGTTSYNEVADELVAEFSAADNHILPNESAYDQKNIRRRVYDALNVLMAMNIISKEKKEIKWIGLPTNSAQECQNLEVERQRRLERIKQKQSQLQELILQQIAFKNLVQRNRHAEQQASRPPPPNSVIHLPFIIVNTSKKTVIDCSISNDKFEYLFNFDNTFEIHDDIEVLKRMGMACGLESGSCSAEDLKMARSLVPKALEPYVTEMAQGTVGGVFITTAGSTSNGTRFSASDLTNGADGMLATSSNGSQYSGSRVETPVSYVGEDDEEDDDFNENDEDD
UniProt Q15329, whole entry: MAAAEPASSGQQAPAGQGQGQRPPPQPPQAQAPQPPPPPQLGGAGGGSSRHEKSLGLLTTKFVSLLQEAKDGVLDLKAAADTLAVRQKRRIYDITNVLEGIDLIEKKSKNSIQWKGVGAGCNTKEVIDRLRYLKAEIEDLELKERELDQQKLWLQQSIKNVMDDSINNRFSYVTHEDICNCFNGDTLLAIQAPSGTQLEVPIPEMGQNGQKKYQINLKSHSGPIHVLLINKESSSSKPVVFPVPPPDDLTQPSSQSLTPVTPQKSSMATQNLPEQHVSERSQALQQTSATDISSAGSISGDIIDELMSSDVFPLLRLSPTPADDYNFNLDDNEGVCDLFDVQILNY
UniProt Q61502, whole entry: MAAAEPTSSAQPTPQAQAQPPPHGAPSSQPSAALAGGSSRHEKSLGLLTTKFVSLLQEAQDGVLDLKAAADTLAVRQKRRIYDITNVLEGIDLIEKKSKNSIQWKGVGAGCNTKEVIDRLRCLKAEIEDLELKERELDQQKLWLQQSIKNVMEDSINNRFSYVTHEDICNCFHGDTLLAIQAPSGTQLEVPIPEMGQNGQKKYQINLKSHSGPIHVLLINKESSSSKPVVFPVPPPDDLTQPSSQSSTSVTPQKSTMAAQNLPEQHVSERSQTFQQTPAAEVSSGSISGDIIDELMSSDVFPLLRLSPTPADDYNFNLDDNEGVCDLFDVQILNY

T2: human MCIDAS (HA-tagged) (human) (UniProt D6RGH6)
T2 sequence: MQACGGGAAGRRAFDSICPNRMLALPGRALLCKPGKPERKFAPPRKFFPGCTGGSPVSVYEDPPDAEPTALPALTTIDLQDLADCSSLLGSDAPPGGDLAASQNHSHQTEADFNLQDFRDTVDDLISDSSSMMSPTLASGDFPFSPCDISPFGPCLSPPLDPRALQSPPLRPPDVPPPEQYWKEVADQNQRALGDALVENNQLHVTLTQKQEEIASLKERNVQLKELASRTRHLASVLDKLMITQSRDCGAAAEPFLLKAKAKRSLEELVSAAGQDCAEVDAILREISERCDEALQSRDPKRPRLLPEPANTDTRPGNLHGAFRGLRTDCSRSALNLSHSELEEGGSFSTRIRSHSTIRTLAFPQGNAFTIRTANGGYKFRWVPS

T3: mouse GMNC (HA-tagged) (mouse) (UniProt Q3URY2)
T3 sequence: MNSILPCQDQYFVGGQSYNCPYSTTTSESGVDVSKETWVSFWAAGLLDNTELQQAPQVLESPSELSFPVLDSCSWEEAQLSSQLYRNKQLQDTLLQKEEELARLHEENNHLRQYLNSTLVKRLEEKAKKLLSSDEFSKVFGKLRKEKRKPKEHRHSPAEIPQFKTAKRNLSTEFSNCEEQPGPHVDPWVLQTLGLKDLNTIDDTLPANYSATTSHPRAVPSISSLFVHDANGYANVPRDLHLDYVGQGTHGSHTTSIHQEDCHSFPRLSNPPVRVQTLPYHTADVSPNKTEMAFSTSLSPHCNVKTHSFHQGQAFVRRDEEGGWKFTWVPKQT

T4: mouse MCIDAS (HA-tagged) (mouse) (UniProt Q3UZ45)
T4 sequence: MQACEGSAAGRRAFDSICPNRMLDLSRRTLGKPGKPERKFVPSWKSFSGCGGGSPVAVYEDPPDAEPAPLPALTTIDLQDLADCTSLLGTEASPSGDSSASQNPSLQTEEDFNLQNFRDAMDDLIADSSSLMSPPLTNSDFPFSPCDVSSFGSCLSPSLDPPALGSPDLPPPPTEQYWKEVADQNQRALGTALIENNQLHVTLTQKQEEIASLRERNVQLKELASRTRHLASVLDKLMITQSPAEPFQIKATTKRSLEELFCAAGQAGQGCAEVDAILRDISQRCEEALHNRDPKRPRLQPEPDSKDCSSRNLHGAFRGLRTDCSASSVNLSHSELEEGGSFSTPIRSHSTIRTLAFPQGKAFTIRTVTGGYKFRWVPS


How the values were obtained:
Assay in all cases: co-IP
[1] = biological target: T1, human GMNC (HA-tagged) (human)
[2] = biological target: T2, human MCIDAS (HA-tagged) (human)
[3] = biological target: T3, mouse GMNC (HA-tagged) (mouse)
[4] = biological target: T4, mouse MCIDAS (HA-tagged) (mouse)
[5] = biological target: T3, mouse GMNC (HA-tagged) (mouse); remark: listed apart in the source

Molecule	binding [1]	binding [2]	binding [3]	binding [4]	also measured
human E2F4 (6x Myc-tagged) (from UniProt Q16254 1-413)		binds			
mouse E2F4 (6x Myc-tagged) (from UniProt Q8R0K9 1-410)			binds weakly	binds	
mouse DP1 (6x Myc-tagged) (protein, UniProt Q08639 1-410) MAKDASLIEANGELKVFIDQNLSPGKGVVSLVAVHPSTVNTLGKQLLPKTFGQSNVNITQQVVIGTPQRPAASNTIVVGSPHTPNTHFVSQNQTSDSSPWSAGKRNRKGEKNGKGLRHFSMKVCEKVQRKGTTSYNEVADELVAEFSAADNHILPNESAYDQKNIRRRVYDALNVLMAMNIISKEKKEIKWIGLPTNSAQECQNLEVERQRRLERIKQKQSQLQELILQQIAFKNLVQRNRQAEQQARRPPPPNSVIHLPFIIVNTSRKTVIDCSISNDKFEYLFNFDNTFEIHDDIEVLKRMGMACGLESGNCSAEDLKVARSLVPKALEPYVTEMAQGSIGGVFVTTTGSTSNGTRLSASDLSNGADGMLATSSNGSQYSGSRVETPVSYVGEDDDDDDDFNENDEED					binding [5]: binds

The next lines start with results.

binding [1]	binding [2]	binding [3]	binding [4]	Molecule	also measured
binds				human DP1 (6x Myc-tagged) (from UniProt Q14186 1-410)	
binds	binds			human E2F5 (6x Myc-tagged) (from UniProt Q15329 1-346)	
		binds	binds	mouse E2F5 (6x Myc-tagged) (from UniProt Q61502 1-335)	
